Source: patent US20100130725A1, “METHODS FOR CHARACTERIZING MOLECULES” (priority 2008, published 2010)
At least one structure is not confirmed: it was looked up by name or label, or the drawing left a doubt.

Tested on: A549 cells
Test: Epic RWG biosensor DMR assay, agonist mode (primary profile), A549 cells
Format: cell-based, human
Settings: FIG. 8: 40 μM pinacidil, 250 μg/ml poly(I:C), 8 μM PMA, 16 μM forskolin
Procedure: All cell lines were obtained from American Type Cell Culture (Manassas, Va.). The cell culture medium was as follows: Dulbecco's modified Eagle's medium (DMEM) supplemented with 10% fetal bovine serum (FBS), 4.5 g/liter glucose, 2 mM glutamine, and antibiotics for human epidermoid carcinoma A431 and human lung carcinoma A549.
Cells were typically grown using ˜1 to 2×10^4 cells per well at passage 3 to 15 suspended in 50 μl of the corresponding culture medium in the biosensor microplate, and were cultured at 37° C. under air/5% CO2 for ˜1 day. Except for A431, which was subject to ˜20 hr starvation through continuous culture in the serum-free DMEM, the other cell types were directly assayed without starvation. The confluency for all cells at the time of assays was ˜95% to 100%. […]
For biosensor cellular assays, molecule solutions were made by diluting the stored concentrated solutions with the HBSS (1× Hanks balanced salt solution, plus 20 mM Hepes, pH 7.1), and transferred into a 384 well polypropylene molecule storage plate to prepare a molecule source plate. […] Both the cell assay plate and the molecule and marker source plate(s) were then incubated in the hotel of the reader system. After ˜1 hr of incubation the baseline wavelengths of all biosensors in the cell assay microplate were recorded and normalized to zero. […]

SMILES: C=C[C@@]1(C)CC(=O)[C@]2(O)[C@@]3(C)[C@@H](O)CCC(C)(C)[C@@H]3[C@H](O)[C@H](OC(C)=O)[C@@]2(C)O1 [forskolin]
- DMR signal triggered by the ligand (primary profile), second ligand panel: robust DMR signals
